# Values of other authors in patent US9801827B2, “Dosage forms for administering combinations of drugs” (Pozen Inc., priority 2006, dated 2017).
# Some entries share one result that the patent states for a list of compounds.
# Settings: pharmacokinetic half-life, given as examples of long acting NSAIDs
row,half-life,Structure (SMILES)
1,4 to 6 h,CN1C(C(=O)Nc2ccccn2)=C(O)c2ccccc2S1(=O)=O [piroxicam]
2,4 to 6 h,COc1ccc2c(c1)c(CC(=O)O)c(C)n2C(=O)c1ccc(Cl)cc1 [indomethacin]
